Results are given in words; binding and its absence hold for the method and conditions named. For part of these data: In cells and extracts the contact can be indirect. Some binding calls cover weakened binding; strength is not graded here.
Columns and labels:
[1] = target: MIS12 (subunit of MIS12C^Nano) (human) (UniProt Q9H081); assay: crystal structure; MIS12C^Nano:CENP-C^1-71 complex, in situ proteolysis with α-chymotrypsin 1:1000 (w/w), sitting drops at 4°C, PEG6K pH 6-8; 3.5 Å; MIS12C subunits co-expressed and purified as a complex; both purified
[2] = target: T1, PMF1 (subunit of MIS12C^Nano) (human) (UniProt Q6P1K2); assay: as above
T1 sequence: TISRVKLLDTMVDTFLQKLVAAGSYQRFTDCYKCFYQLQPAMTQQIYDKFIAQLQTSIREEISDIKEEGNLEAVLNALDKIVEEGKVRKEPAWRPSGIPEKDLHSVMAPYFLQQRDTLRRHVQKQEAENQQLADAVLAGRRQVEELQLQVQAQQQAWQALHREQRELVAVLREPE

Protein sequences, listed by entry. Tags and fused reporters are not part of them. Lines headed by an entry give the natural chain unless they say otherwise; changes in a name come on top. Chains listed by the source or under a name are the forms on record and can include a tag or linker. Residues count along the entry.
UniProt Q9H081: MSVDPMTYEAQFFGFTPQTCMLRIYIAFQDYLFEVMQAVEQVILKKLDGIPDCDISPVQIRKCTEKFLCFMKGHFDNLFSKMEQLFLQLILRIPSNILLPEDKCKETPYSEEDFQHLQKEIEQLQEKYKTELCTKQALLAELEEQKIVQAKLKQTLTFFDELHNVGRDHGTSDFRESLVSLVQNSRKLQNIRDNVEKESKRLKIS
GFP-MIS12C^MIS12-YFF (Q9H081, form named): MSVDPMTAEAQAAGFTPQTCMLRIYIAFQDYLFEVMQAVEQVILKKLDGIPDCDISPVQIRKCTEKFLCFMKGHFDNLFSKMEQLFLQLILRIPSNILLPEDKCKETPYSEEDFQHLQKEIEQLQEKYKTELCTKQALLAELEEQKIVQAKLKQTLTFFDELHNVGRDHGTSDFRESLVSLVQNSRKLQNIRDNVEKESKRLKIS
UniProt Q9H410, residues 68-356: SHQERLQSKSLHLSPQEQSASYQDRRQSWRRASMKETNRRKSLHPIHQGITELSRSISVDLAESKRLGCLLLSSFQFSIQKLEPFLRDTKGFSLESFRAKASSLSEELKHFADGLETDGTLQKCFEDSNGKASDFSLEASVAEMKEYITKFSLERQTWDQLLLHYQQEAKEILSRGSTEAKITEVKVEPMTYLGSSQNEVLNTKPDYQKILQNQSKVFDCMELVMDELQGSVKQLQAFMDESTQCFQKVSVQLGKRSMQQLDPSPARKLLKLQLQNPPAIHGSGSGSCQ
UniProt O14777: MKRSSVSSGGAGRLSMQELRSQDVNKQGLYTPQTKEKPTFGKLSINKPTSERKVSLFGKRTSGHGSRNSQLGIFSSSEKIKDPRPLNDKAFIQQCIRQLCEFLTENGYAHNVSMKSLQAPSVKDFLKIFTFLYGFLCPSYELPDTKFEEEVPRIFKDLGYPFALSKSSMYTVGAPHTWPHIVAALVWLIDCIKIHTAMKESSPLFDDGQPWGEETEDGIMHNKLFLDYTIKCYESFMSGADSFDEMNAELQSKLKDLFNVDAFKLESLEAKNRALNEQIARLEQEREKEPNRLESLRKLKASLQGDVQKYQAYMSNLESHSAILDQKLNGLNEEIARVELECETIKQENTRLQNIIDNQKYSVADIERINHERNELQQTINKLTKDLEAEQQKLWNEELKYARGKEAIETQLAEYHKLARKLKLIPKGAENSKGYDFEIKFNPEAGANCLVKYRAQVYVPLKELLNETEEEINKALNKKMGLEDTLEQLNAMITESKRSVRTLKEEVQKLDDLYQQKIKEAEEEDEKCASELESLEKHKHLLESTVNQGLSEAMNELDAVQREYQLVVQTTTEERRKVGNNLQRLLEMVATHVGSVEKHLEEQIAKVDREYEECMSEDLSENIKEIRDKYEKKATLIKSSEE
UniProt Q96IY1, residues 1-206: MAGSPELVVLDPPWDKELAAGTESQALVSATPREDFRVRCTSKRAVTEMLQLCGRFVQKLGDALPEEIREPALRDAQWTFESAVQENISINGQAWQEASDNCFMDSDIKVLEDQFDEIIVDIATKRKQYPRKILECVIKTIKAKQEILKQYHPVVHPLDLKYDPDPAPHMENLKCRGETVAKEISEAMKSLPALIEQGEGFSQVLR
UniProt Q8NG31: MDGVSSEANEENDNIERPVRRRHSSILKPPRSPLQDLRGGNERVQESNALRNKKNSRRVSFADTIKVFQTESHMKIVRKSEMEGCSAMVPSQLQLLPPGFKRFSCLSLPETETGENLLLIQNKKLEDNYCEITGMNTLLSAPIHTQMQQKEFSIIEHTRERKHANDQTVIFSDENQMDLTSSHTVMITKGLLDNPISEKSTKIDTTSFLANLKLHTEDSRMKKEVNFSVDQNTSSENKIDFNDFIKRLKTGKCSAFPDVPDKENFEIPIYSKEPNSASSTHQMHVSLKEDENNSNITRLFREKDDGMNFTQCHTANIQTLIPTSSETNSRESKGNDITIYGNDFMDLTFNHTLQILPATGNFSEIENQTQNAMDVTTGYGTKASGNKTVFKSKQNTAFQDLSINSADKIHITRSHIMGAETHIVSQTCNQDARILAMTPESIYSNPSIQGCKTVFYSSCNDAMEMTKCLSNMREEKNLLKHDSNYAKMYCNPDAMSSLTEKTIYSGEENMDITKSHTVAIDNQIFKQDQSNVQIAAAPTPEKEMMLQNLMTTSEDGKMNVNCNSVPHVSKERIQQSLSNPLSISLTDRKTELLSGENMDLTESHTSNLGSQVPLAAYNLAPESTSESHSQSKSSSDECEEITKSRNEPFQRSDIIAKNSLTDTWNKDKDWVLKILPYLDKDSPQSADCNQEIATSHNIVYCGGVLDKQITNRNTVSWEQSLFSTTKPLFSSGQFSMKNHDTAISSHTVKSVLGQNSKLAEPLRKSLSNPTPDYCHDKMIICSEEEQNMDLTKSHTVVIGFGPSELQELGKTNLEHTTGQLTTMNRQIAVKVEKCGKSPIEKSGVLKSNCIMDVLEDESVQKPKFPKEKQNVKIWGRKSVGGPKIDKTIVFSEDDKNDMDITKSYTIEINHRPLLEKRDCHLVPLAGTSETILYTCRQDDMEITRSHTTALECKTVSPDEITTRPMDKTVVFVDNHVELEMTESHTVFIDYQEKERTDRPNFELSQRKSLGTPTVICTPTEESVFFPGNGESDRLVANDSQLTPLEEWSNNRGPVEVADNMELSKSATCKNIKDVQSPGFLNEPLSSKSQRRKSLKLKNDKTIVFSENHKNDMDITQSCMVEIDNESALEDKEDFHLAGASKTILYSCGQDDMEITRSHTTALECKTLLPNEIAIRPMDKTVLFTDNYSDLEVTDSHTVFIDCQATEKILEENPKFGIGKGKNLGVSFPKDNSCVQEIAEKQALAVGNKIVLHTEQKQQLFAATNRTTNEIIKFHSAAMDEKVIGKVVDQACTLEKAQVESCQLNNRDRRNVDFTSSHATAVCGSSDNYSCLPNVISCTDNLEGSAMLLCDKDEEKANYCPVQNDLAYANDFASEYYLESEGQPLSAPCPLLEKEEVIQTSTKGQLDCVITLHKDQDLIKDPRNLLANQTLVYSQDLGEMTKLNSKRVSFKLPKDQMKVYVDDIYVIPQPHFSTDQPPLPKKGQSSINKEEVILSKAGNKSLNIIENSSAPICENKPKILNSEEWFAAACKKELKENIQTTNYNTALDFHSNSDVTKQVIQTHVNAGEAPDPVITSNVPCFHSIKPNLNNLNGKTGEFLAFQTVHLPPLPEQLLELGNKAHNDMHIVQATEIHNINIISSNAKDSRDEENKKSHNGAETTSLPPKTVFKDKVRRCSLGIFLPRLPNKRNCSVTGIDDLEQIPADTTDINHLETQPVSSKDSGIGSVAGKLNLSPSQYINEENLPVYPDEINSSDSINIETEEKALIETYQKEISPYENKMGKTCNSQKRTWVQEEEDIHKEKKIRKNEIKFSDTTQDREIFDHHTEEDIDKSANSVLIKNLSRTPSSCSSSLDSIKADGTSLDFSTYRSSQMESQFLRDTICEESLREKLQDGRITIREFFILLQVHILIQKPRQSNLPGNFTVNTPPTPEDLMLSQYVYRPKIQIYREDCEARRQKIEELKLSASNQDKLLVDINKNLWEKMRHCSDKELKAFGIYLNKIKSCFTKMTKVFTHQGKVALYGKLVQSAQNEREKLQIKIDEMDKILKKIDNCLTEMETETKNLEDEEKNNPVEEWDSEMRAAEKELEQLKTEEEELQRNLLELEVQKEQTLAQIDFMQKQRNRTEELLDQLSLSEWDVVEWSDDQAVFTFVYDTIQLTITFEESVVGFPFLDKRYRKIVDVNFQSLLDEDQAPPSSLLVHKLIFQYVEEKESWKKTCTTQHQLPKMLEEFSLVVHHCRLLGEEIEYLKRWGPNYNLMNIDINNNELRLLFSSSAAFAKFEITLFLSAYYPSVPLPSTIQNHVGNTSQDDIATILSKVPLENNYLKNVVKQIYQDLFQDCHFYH

[3] = target: GFP-MIS12C^MIS12-YFF (human) (UniProt Q9H081); assay: co-IP; GFP-Trap from lysates of mitotic (shake-off) Flp-In T-REx HeLa cells expressing GFP-MIS12 constructs; 75 mM HEPES pH 7.5, 150 mM KCl, 0.075% NP-40; 3 hr at 4°C; western blot
GFP-MIS12^WT (human) = GFP-MIS12^WT (human) (UniProt Q9H081); assay: as above

Row | Substance | binding [1] | binding [2] | binding [3] | binding (GFP-MIS12^WT (human))
1 | DSN1 (subunit of MIS12C^Nano) (from UniProt Q9H410 68-356) (domain or fragment) | binds | binds | – | –
2 | NDC80 (endogenous) (from UniProt O14777 1-642) | – | – | binds | binds
3 | NSL1 (subunit of MIS12C^Nano) (from UniProt Q96IY1 1-206) (domain or fragment) | binds | binds | – | –
4 | MIS12 (subunit of MIS12C^Nano) (from UniProt Q9H081 1-205) (domain or fragment) | – | binds | – | –
5 | KNL1 (endogenous) (from UniProt Q8NG31 1-2342) | – | – | binds | binds
